Laboratory results published in PMC12040169 (PLOS Biology, 2025).
This is one part of the list.

These compounds were tested on T1, CTL2-GFP (C. trachomatis L2/434/Bu, GFP-expressing). Details: bulk GFP, single well; 28.5 h, 10 µM; inhibitor.
T1 construct: L2/434/Bu, GFP-expressing
Design: species or system HeLa; Intracellular C. trachomatis growth in HeLa cells, bulk GFP fluorescence relative to DMSO

Compound | % of control remaining [%]
CCC(C)Oc1ccccc1OCCN1C(=O)NC(C)(C)C1=O (stereo not drawn) [CBK267362] | 164.948
CN1CCCCC1CC(=O)Nc1ccc2ncn(C)c2c1 (stereo not drawn) [CBK281747] | 144.899
Nc1ncc(-c2cccc(OC(F)(F)F)c2)nc1-c1ccc(C(=O)N2CCOCC2)cc1 [CBK064091] | 122.848
CN1CCN(c2ccnc3cc(Cl)ccc23)CC1 [CBK066867C] | 107.675
Cc1ccc(CN2CCCC(n3c(=O)oc4ccccc43)C2)o1 (stereo not drawn) [CBK284871] | 128.291
CCN1CCN(C(=O)c2ccc(C)c(S(=O)(=O)Nc3cccc(C)c3)c2)CC1 [CBK268226] | 91.4984
Nc1ncc(-c2ccc(-c3ccccc3)cc2)nc1NC1CCCCC1 [CBK063572] | 136.818
CN(C)[C@@H]1CN(Cc2ccc(O)cc2)C[C@H]1c1cn(C)c2ccccc12 [CBK284952] | 118.745
Cc1cc(C)c(S(=O)(=O)N(CC(=O)O)C2CCCCC2)c(C)c1 [CBK266663] | 143.363
CCCc1cc(O)nc(SC(C)C(=O)N2CCOCC2)n1 (stereo not drawn) [CBK305030] | 132.549
N#C/C(=C\c1ccccc1O)C(=O)Nc1sc2c(c1C(N)=O)CCCC2 [CBK263644] | 78.5852
CCOc1ccc(N2C(=O)CC(N3CCN(CCc4ccncc4)CC3)C2=O)cc1 (stereo not drawn) [CBK269930] | 111.493
COc1ccccc1Cc1cccc(C2CCCN2C(=O)c2ccc(F)cc2)n1 (stereo not drawn) [CBK286239] | 112.885
CCn1cc(CN2CCN(C(=O)C3C4CCCCC43)CC2)c(C)n1 (stereo not drawn) [CBK281545] | 116.797
O=C(NCc1ccc(Cl)cc1)N1CCCC(CO)C1 (stereo not drawn) [CBK156053] | 114.216
CCS(=O)(=O)N1CCC(C(=O)NC2CC(C)(C)Oc3ccccc32)CC1 (stereo not drawn) [CBK304364] | 136.692
COCCCN(Cc1ccccn1)Cc1cc(F)ccc1F [CBK282950] | 97.3601
CC(=O)c1ccc(NC(=O)C(C)SCc2ccc(C)cc2)cc1 (stereo not drawn) [CBK296616] | 133.458
C#CCN(C)CC[C@@H]1CC[C@H](O)[C@@H](C(=O)NC(C)C)O1 [CBK288718] | 103.972
O=C(Cc1ccc(F)cc1)N1CCC(c2cc3cnccc3[nH]2)CC1 [CBK283454] | 134.052
COC(=O)C(C)(C)C1c2cc(Br)ccc2OC(=O)C1C(=O)c1ccccc1 (stereo not drawn) [CBK266690] | 151.675
CCOC(=O)c1[nH]c2ccccc2c1NS(=O)(=O)c1ccc(NC(C)=O)cc1 [CBK047411] | 110.758
O=C(Nc1nc2c(F)cc(F)cc2s1)c1ccc(F)cc1 [CBK287617] | 135.338
CCOC(=O)c1c(CN2CCCC2)nc2c3ccccc3ccn12 [CBK267521C] | 110.146
CC1CCc2c(sc(NC(=S)NC(=O)c3ccc4c(c3)OCCO4)c2C(N)=O)C1 (stereo not drawn) [CBK266370] | 202.502
Cc1cc(OCC(=O)Nc2ccc(S(=O)(=O)N3CCOCC3)cc2)ccc1[N+](=O)[O-] [CBK268114] | 120.826

Compound | % of control remaining [%]
COC(=O)C(O)(CC(=O)Nc1ccc(C)c(F)c1)C(F)(F)F (stereo not drawn) [CBK267440] | 134.804
O=C(O)CN1C(=O)/C(=C/C2=Cc3ccccc3OC2)SC1=S [CBK264787] | 100
O=c1cc(N2CCOCC2)cnn1CCCCOc1ccccc1 [CBK307327] | 136.462
CN1CCN(CC(=O)N/N=C/C2CC=CCC2)CC1 (stereo not drawn) [CBK019340] | 149.272
Cc1ccc(-n2c(=O)[nH]c3c(C(N)=O)nc(-c4ccccc4)nc32)cc1C [CBK287718] | 119.303
CCOC(=O)c1cnn2c(O)cc(CN3CCCC3c3ccsc3)nc12 (stereo not drawn) [CBK305647] | 78.4919
Nc1cccc(-c2nccnc2NCc2cccnc2)c1 [CBK089310] | 98.817
CN(C)S(=O)(=O)c1ccc(NC(=O)c2ccc(-c3ccccc3)cc2)cc1 [CBK267322] | 135.234
NC(=O)c1c(NC(=S)NC(=O)c2ccccc2Br)sc2c1CCC2 [CBK265543] | 115.55
COCCc1noc(C(C)NC(=O)Cc2cccc(O)c2)n1 (stereo not drawn) [CBK307493] | 147.203
CC(C)COc1ccc(-c2nonc2NC(=O)c2ccccc2F)cc1 [CBK299831] | 114.604
Cc1nc(C2CCN(C(=O)c3cscn3)CC2)c2sccn12 [CBK285240] | 109.206
COc1cccc(Cn2c(=O)[nH]n(-c3ccccc3)c2=O)c1 [CBK122771] | 92.6473
NC(=O)CN1CCC[C@@H]2NC(=O)COc3ccccc3C(=O)N[C@@H]3CCOC[C@@H]3C/C=C/C[C@@H]21 [CBK292041] | 128.084
O=C(NC(C(=O)O)c1ccccc1)NC12CC3CC(CC(C3)C1)C2 (stereo not drawn) [CBK268313] | 103.162
c1ccc(-c2csc(Nc3cccnc3)n2)nc1 [CBK267184] | 82.4639
CC(C)(C)NS(=O)(=O)c1ccc(OCC(=O)NCc2ccncc2)cc1 [CBK266434] | 143.769
Clc1ccc(OCCOc2ccccc2)nn1 [CBK176034] | 124.922
COCc1ccc(C(=O)N2CCC(Cc3ccccc3-c3cccs3)(C(N)=O)CC2)cc1 [CBK286276] | 116.947
O=C1CCOC[C@]2(CN(Cc3ccccc3)C[C@H]2c2ccccc2)N1 [CBK283367] | 133.875
O=C(N/C(=C/c1ccccc1)C(=O)N1CCCCC1)c1ccccc1 [CBK261280] | 94.2186
CC1Cc2cc(C(O)CN3CCC4CCCCC4C3)ccc2N1S(C)(=O)=O (stereo not drawn) [CBK286456] | 94.5016
O=C1CC2(CCC3C(C(=O)N4CCCC4)C32)Oc2ccccc21 (stereo not drawn) [CBK284969] | 135.919
CN1C(=O)COc2ccccc2CCCC[C@@H]2[C@H]1CCCN2C(=O)CNS(C)(=O)=O [CBK292118] | 94.9727
CCOC(=O)C1CCCN(CCC(=O)Nc2cccc(C)c2)C1 (stereo not drawn) [CBK264158C] | 94.4023
C[C@]12CN(Cc3ccccc3)C[C@H]1CNc1ccccc1C(=O)N2 [CBK282932] | 104.011

Nothing new here: 18 of the compounds above.
Compound | % of control remaining [%]
Nc1ncc(-c2ccc(-c3ccccc3)cc2)nc1NC1CCCCC1 [CBK063572] | 136.818
CN(C)[C@@H]1CN(Cc2ccc(O)cc2)C[C@H]1c1cn(C)c2ccccc12 [CBK284952] | 118.745
Cc1cc(C)c(S(=O)(=O)N(CC(=O)O)C2CCCCC2)c(C)c1 [CBK266663] | 143.363
CCCc1cc(O)nc(SC(C)C(=O)N2CCOCC2)n1 (stereo not drawn) [CBK305030] | 132.549
N#C/C(=C\c1ccccc1O)C(=O)Nc1sc2c(c1C(N)=O)CCCC2 [CBK263644] | 78.5852
CCOc1ccc(N2C(=O)CC(N3CCN(CCc4ccncc4)CC3)C2=O)cc1 (stereo not drawn) [CBK269930] | 111.493
COc1ccccc1Cc1cccc(C2CCCN2C(=O)c2ccc(F)cc2)n1 (stereo not drawn) [CBK286239] | 112.885
CCn1cc(CN2CCN(C(=O)C3C4CCCCC43)CC2)c(C)n1 (stereo not drawn) [CBK281545] | 116.797
O=C(NCc1ccc(Cl)cc1)N1CCCC(CO)C1 (stereo not drawn) [CBK156053] | 114.216
CCS(=O)(=O)N1CCC(C(=O)NC2CC(C)(C)Oc3ccccc32)CC1 (stereo not drawn) [CBK304364] | 136.692
COCCCN(Cc1ccccn1)Cc1cc(F)ccc1F [CBK282950] | 97.3601
CC(=O)c1ccc(NC(=O)C(C)SCc2ccc(C)cc2)cc1 (stereo not drawn) [CBK296616] | 133.458
C#CCN(C)CC[C@@H]1CC[C@H](O)[C@@H](C(=O)NC(C)C)O1 [CBK288718] | 103.972
O=C(Cc1ccc(F)cc1)N1CCC(c2cc3cnccc3[nH]2)CC1 [CBK283454] | 134.052
COC(=O)C(C)(C)C1c2cc(Br)ccc2OC(=O)C1C(=O)c1ccccc1 (stereo not drawn) [CBK266690] | 151.675
CCOC(=O)c1[nH]c2ccccc2c1NS(=O)(=O)c1ccc(NC(C)=O)cc1 [CBK047411] | 110.758
O=C(Nc1nc2c(F)cc(F)cc2s1)c1ccc(F)cc1 [CBK287617] | 135.338
CCOC(=O)c1c(CN2CCCC2)nc2c3ccccc3ccn12 [CBK267521C] | 110.146

Next results follow.

Compound | % of control remaining [%]
COc1cncc(-c2cncc(Nc3cc(OC)c(OC)c(OC)c3)n2)c1 [CBK065397] | 126.856
Cn1nc2c(cc1=O)CN(C(=O)c1ccc3cc[nH]c3c1)CC2 [CBK304343] | 70.983
CN1CCN(c2nc(-c3ccc4c(c3)CCCC(=O)N4)cs2)CC1 [CBK305600] | 103.78
Cc1ccc(CN(CCCn2ccnc2)Cc2nccn2C)s1 [CBK283137] | 113.649
CS(=O)(=O)N(CC(=O)Nc1ccccc1C(=O)N1CCCC1)c1cc(Cl)c(Cl)cc1Cl [CBK268826] | 112.534
O=C(Cn1cc(C(=O)NCC2(c3ccccc3Cl)CC2)ccc1=O)NC1CCCCC1 [CBK285985] | 122.468
COc1ccc(C)cc1S(=O)(=O)Nc1cc(N2CCNC(C(F)(F)F)C2)c2occc2c1 (stereo not drawn) [CBK073818C] | 133.173
C[C@@H](c1ccccc1)n1c(=O)[nH]c2ncc(-c3cncc4ccccc34)nc21 [CBK064726] | 101.967
CCOCCC(=O)N/N=C(/C)c1ccc(Cl)s1 [CBK007454] | 108.81
O=S(=O)(c1ccccc1)C1CCCCO1 (stereo not drawn) [CBK020284] | 144.566
COc1ccccc1-c1ccc(NS(=O)(=O)c2ccc3c(c2)CCC(=O)N3)cc1 [CBK286353] | 106.513
CCOc1ccc(NC(=O)C(=O)NC2CCCCC2)cc1 [CBK261822] | 117.872
CC(C)(C)COC(=O)N1CCC2(CC1)CC(=O)N(Cc1ccc(S(C)(=O)=O)cc1)C2=O [CBK155949] | 118.12
Cc1nc(CN2CCCN(S(=O)(=O)c3ccc(C(=O)c4ccccc4)cc3)CC2)c[nH]1 [CBK063029] | 93.8174
Cc1ccc(-c2noc([C@@H]3C[C@H](NC(=O)CCC(=O)O)CN3C)n2)cc1 [CBK288852] | 109.996
O=C(O)C1CC=C(Cl)CC1C(=O)Nc1ccc(Cl)cc1[N+](=O)[O-] (stereo not drawn) [CBK265612] | 123.022
COc1ccccc1-c1noc(CN2CCCC(C(F)(F)F)C2)n1 (stereo not drawn) [CBK305598] | 138.942
CCc1cc(C(=O)OC)c(NC(=O)CC2Nc3cccc4cccc(c34)NC2=O)s1 (stereo not drawn) [CBK267563] | 140.797
CCC(O)Cn1nc(CCSC)nc1-c1ccc2[nH]ccc2c1 (stereo not drawn) [CBK307526] | 109.386
N=C(SC1CC(=O)N(c2ccc(C(=O)O)cc2)C1=O)N1N=C(c2ccccc2)CC1c1ccccc1 (stereo not drawn) [CBK262446] | 147.204
O=C(Nc1ccc(F)cc1F)Nc1cc(Cl)sc1Cl [CBK019967] | 117.619
CC(C)(C)c1cc(NC(=O)c2csc3c(C(F)(F)F)cc(N4CCN(Cc5ccccc5)CC4)nc23)no1 [CBK028962] | 101.954
CC1(C)CC(=O)C=C(C(=O)NCc2ccc3c(c2)OCO3)O1 [CBK153290] | 100
COc1ncccc1C(=O)Nc1c(C)noc1C [CBK200307] | 99.908
O=C(CSc1cnn[nH]1)Nc1ccc(F)cc1 [CBK270024] | 127.719
O=S(=O)(Nc1cc(NCCCN2CCOCC2)c2occc2c1)c1ccccc1C(F)(F)F [CBK067838C] | 62.0028
